Test results reported in US11053207B2, “Indoleamine-2,3-dioxygenase inhibitor and preparation method therefor” (SHANGHAI INSTITUTE OF ORGANIC CHEMISTRY, CHINESE ACADEMY OF …, priority 2014, dated 2021).
Entries after “also recorded” stand apart in the source; their conditions may differ. At least one structure is not confirmed: it was looked up by name or label, or the drawing left a doubt.

System: CT26 transplanted tumor
Assay: In vivo pharmacodynamic test on the growth of colon cancer CT26 transplanted tumor in mice
Conditions: mouse CT-26 model, intragastric 30 and 100 mg/kg, 2 times × 14 day, compared with control INCB24360

Compound: CS(=O)(CCNc1nonc1/C(=N/O)Nc1ccc(F)c(Br)c1)=NC#N (racemic) [compound 6, (±)(Z)—N-(3-bromo-4-fluorophenyl)-N′-hydroxy-4-((2-(thio-methylsulfoxidecyanoimine)ethyl)amino)-1,2,5-oxadiazole-3-carboxamidine]
- inhibitory effect on tumor growth: more potent inhibitory effect on tumor growth than the control compound; also recorded: more effective inhibitory effect on tumor growth
